Experimental data taken from patent US11261177B2, “Benzoxazinone derivatives useful as herbicides” (REDAG CROP PROTECTION LTD, priority 2017, dated 2022).
At least one compound was matched to its structure with a doubt left.

Test system: 2 weed species (Stellaria media—Chickweed and Lolium perenne)
Test: Herbicidal activity screen, summary in words over both weed species
Format: in vivo
Conditions: pre- and post-emergence, 0.2, 1 and 5 kg/ha
Description: The compounds were screened at three concentrations (0.2, 1 and 5 kg/ha) against 2 weed species (Stellaria media—Chickweed and Lolium perenne). The seeds were sown in the cells of 96 cell trays (4-6 seeds per cell). For the pre-emergence assay, 75 μL of a suspension of the test compound, at the above doses, was added on top of the soil 1 day after sowing. For the post-emergence assay, the seedlings were sprayed with 200 μL of a suspension of the test compound two weeks after sowing. The formulation used is 25% acetone and 75% water/0.01% Tween 20. Each treatment was replicated three times. The plants were kept in a glasshouse (uncontrolled conditions) and assessed 7 days after treatment. A small number of compounds were tested in a first trial. A larger number of compounds were tested in a second trial. The assessment was based on the % control of plant growth in each cell.

Question: How did the herbicidal activity turn out when C#CCN1C(=O)C2(CC2)Oc2cc(F)c(-n3c(=O)cc(C(F)(F)F)n(CC#C)c3=O)cc21 [Example 41] was run?
Answer: excellent herbicidal activity against all tested species
